This passage reports AC50 results from PubChem BioAssay AID445 (National Center for Advancing Translational Sciences (NCATS), 2006).

The AC50 is the concentration giving half of the maximal activity seen.

The list shows a part of the results. The main result of the screen is listed elsewhere. These columns were measured beside it and carry no call. Most of these compounds were active or inconclusive in the main read-out, so they are no random draw. Words in brackets tell the shape of the fitted curve; partial curves, single points and poor fits give uncertain potencies.

This test in a line: IkB Signaling. The note with it: ABC-DLBCL IkBa-CBG/CBR dual luciferase ratio (green luciferase fused to IkBa over red control in OCI-Ly3 lymphoma cells), 4 h; measured here: control luc red channel unless noted. In short, it runs like this: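 In this assay, an IκBα–CBG68 fusion accumulates when IKK-driven degradation is blocked; native CBR normalizes for cell number. OCI-Ly3 cells were treated 4 h with compound and doxycycline, then green and red light read after Chroma-Glo addition.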
Take `Cc1nc2ccc(F)cc2cc1C(=O)NCC1CCCO1` (configuration not stated): the AC50 was 7.94 µM [falling, full curve, poor fit]. Consider `O=C(CCn1c(=O)c2cccn2c2ccccc21)Nc1ccc(F)cc1`, for which the AC50 was 12.6 µM [falling, partial curve]. As to `Cc1cc(C)n(-c2nnc(Nc3cc(Cl)ccc3C)c3ccccc23)n1`, the half-maximal activity concentration (AC50) was 15.8 µM [falling, partial curve]. Take `Cc1nc(-c2ccc(C)c(S(=O)(=O)N3CCC(C(=O)Nc4ccc(Cl)cc4)CC3)c2)no1`: the AC50 is 10 µM [falling, partial curve].

Regarding `CCCCCN=c1ccn(Cc2ccccc2)c2ccccc12`, the AC50 was 15.8 µM [falling, partial curve].

`COc1cc2c(cc1OC)[C@@H]1C(=O)c3ccc4c(c3O[C@@H]1CO2)C=CC(C)(C)O4`: the AC50 was 15.8 µM [falling, partial curve]. Consider `Cc1ccccc1NC(=O)c1ccc(F)c(S(=O)(=O)N(C)C2CCCCC2)c1`, for which the concentration at half-maximal activity (AC50) was 31.6 µM [falling, single point].

Regarding `Cc1ccccc1NC(=O)C1CCN(C(=O)c2cnn(-c3ccccc3)c2-n2cccc2)CC1`, the AC50 was 25.1 µM [falling, single point]. As to `Cc1cccc(-c2nc3nc(C)cc(NCc4ccccc4Cl)n3n2)c1`, the AC50 is 25.1 µM [falling, partial curve]. `CCc1ccc(-n2c(N3CCN(c4cccc(Cl)c4)CC3)nc3ccccc3c2=O)cc1`: the half-maximal activity concentration (AC50) was 31.6 µM [falling, single point].

With `Cc1ccc(NC(=O)N(Cc2cc3cc(C)cc(C)c3[nH]c2=O)CC2COCCO2)cc1` (configuration not stated), the AC50 is 31.6 µM [falling, single point].

With `Cn1c(O)c(C=NCCCCCC(=O)O)c(=O)n(C)c1=O`, the concentration at half-maximal activity (AC50) is 25.1 µM [falling, partial curve]. Regarding `O=C(NCC(c1cccs1)S(=O)(=O)c1cccs1)c1ccc(Cl)cc1` (configuration not stated), the AC50 is 20 µM [falling, single point]. Consider `Nc1nnc(SCC(=O)Nc2ccccc2)s1`, for which the AC50 was 2 µM [falling, full curve]. As for `c1csc(Cn2c(-c3cccs3)nc3ccccc32)c1`, the AC50 was 25.1 µM [falling, partial curve]. As for `Cc1ccc2nc(-c3c[nH]c4ccccc34)c(Nc3ccccc3C)n2c1`, the AC50 is 0.0501 µM [falling, full curve]. Take `CCN1CCN(C(=O)Cn2ncc3c4ccccc4n(Cc4ccccc4)c3c2=O)CC1`: the AC50 is 25.1 µM [falling, single point]. With `Cc1cc(C)c(Cn2c3ccccc3c3cnn(CC(=O)NCc4ccccn4)c(=O)c32)c(C)c1`, the concentration at half-maximal activity (AC50) was 39.8 µM [rising, single point] [measured here: IkB-luc green channel]. Turning to `CCOC(=O)Cc1csc(NC(=O)c2ccc(S(=O)(=O)N3CCCC3)cc2)n1`, the concentration at half-maximal activity (AC50) is 15.8 µM [falling, partial curve]. In the case of `O=C(CCS(=O)(=O)c1ccc(Br)cc1)Nc1ccc(Cl)c(C(F)(F)F)c1`, the half-maximal activity concentration (AC50) was 0.0316 µM [falling, full curve, poor fit].

In the case of `COc1ccccc1CCNC(=O)C(=O)NCC(c1cccs1)S(=O)(=O)c1ccccc1` (configuration not stated), the half-maximal activity concentration (AC50) was 0.0794 µM [falling, full curve, poor fit].

Take `CCc1ccc(-c2nc(-c3ccncc3)no2)cc1`: the AC50 is 12.6 µM [falling, partial curve].

With `COc1cc(NC(=O)C2CCN(S(=O)(=O)c3ccc4c(c3)oc(=O)n4C)CC2)cc(OC)c1`, the half-maximal activity concentration (AC50) is 12.6 µM [falling, partial curve]. Regarding `CCOc1ccc(CN2C(=O)c3ccccc3Sc3ccc(C(=O)NC)cc32)cc1`, the half-maximal activity concentration (AC50) was 20 µM [falling, single point]. Take `CC(C)c1cnc2c(c1SCc1cccc(F)c1)c(=O)n(C)c(=O)n2C`: the AC50 was 39.8 µM [falling, single point]. As to `CC(=O)N1CCc2cc(Br)cc(S(=O)(=O)N3CCC(C)CC3)c21`, the half-maximal activity concentration (AC50) is 39.8 µM [falling, single point]. For the molecule `Cc1ccccc1Nc1nc(N)nc(CN(C)c2ccccc2)n1`, the AC50 was 20 µM [falling, single point]. For the molecule `COc1cc(NC(=O)C2CCCN2S(=O)(=O)c2cccc3cccnc23)cc(OC)c1OC` (configuration not stated), the AC50 was 3.16 µM [rising, full curve, poor fit].

`Cc1ccccc1-c1nc(CS(=O)(=O)CC(=O)Nc2cc(F)ccc2F)c(C)o1`: the AC50 was 39.8 µM [falling, single point]. The result for `Cc1nc2nc(NC(=O)C(C)(C)C)[nH]n2c(=O)c1Cc1ccccc1` reads 7.94 µM [rising, partial curve]. As to `CCN(CC)C(=O)CSc1nc2cc3c(cc2c(=O)n1CCCCCC(=O)NCCc1ccc(OC)c(OC)c1)OCO3`, the half-maximal activity concentration (AC50) is 39.8 µM [rising, partial curve, poor fit].

For the molecule `COc1ccc(CNC(=O)c2ccc3c(c2)N(Cc2ccccc2F)C(=O)c2ccccc2S3(=O)=O)cc1`, the concentration at half-maximal activity (AC50) was 12.6 µM [falling, partial curve].

Turning to `CCOc1ccc(NC(=O)c2c(NCc3sccc3C)sc3c2CCCCC3)cc1`, the AC50 is 31.6 µM [falling, partial curve].

Consider `COCCNC(=O)CCc1c(C)nc2c(c(C)nn2-c2ccc(C)cc2)c1C`, for which the half-maximal activity concentration (AC50) was 25.1 µM [falling, single point]. The result for `CCCN(CCC)c1nc(-c2ccccc2F)nc2ccccc12` reads 25.1 µM [falling, partial curve].

For `O=C(CSc1nc2c([nH]c3ccccc32)c(=O)n1-c1ccc(F)cc1)NC1CCCCC1`, the concentration at half-maximal activity (AC50) was 20 µM [falling, single point]. With `O=C(COc1ccc([N+](=O)[O-])cc1)Nc1cccc2cccnc12` the figure was 1.58 µM [rising, full curve].

Take `CCCOc1ccc(C(=O)N2CCN(c3ccc(NC(=O)CC)cc3Cl)CC2)cc1`: the AC50 was 25.1 µM [falling, partial curve]. The result for `COCCNC(=O)c1cccc(Nc2nc3ccccc3n3nnnc23)c1` reads 0.0158 µM [rising, full curve, poor fit].

On to `CC1CCc2c(sc(NC(=O)c3ccc(Cl)cc3Cl)c2C#N)C1` (configuration not stated), for which the AC50 is 2 µM [falling, full curve]. Consider `O=C1N(Cc2cccc(C(F)(F)F)c2)c2ccccc2S(=O)(=O)N1c1cccc(Cl)c1`, for which the half-maximal activity concentration (AC50) was 20 µM [falling, single point]. In the case of `Cc1c(Cl)cccc1N1C(N)=C(C#N)C(c2cc(CN3CCOCC3)cs2)C2=C1CCCC2=O` (configuration not stated), the concentration at half-maximal activity (AC50) is 15.8 µM [falling, partial curve]. As for `Cc1ccc(NC(=O)Cn2cnc3nc4c(cc3c2=O)CCCC4)cc1Cl`, the concentration at half-maximal activity (AC50) was 3.98 µM [falling, partial curve, poor fit]. With `CCOc1ccc(S(=O)(=O)c2cn(Cc3ccccc3)c3ccc(OCC)cc3c2=O)cc1`, the AC50 was 7.94 µM [falling, partial curve]. With `CCc1ccc(S(=O)(=O)Nc2cccc(-c3ccc(N4CCC(C)CC4)nn3)c2)s1` the figure was 2.51 µM [falling, full curve]. `CC(C)(C)OC(=O)N1CCC(c2c(C(=O)NCc3ccco3)cnn2-c2ccccc2)CC1`: the AC50 is 25.1 µM [falling, partial curve]. With `CCc1ccc(CNC(=O)c2cnc3sc(N4CCCCC4)nn3c2=O)cc1`, the concentration at half-maximal activity (AC50) is 12.6 µM [rising, partial curve, poor fit]. On to `CCn1c(=O)cc(SCC(=O)NCc2ccccc2OC)c2ccccc21`, for which the AC50 was 15.8 µM [falling, partial curve].

For `Nc1cc(C(=O)O)ccc1Nc1ccccc1`, the AC50 was 6.31 µM [falling, partial curve]. For the molecule `Cc1cccc(C(=O)NC(=O)Nc2ccc(-c3cc(C(F)(F)F)nn3-c3ccccc3)cc2)c1`, the half-maximal activity concentration (AC50) is 0.398 µM [falling, full curve]. Regarding `O=C(Cn1cc(C(=O)c2ccco2)c2ccccc21)Nc1ccccc1Cl`, the AC50 was 0.251 µM [falling, full curve, poor fit]. Regarding `CCOC(=O)c1sc2ccccc2c1S(=O)(=O)N1CCN(c2cccc(C)c2C)CC1`, the AC50 is 15.8 µM [falling, partial curve]. With `COc1cc(NC(=O)C2CCCN(S(=O)(=O)c3ccc4c(c3)CCCC(=O)N4)C2)cc(OC)c1` (configuration not stated), the half-maximal activity concentration (AC50) was 25.1 µM [falling, single point].

`COc1cc(Cl)c(C)cc1NC(=O)Cn1ncc2c(=O)oc3ccccc3c21`: the AC50 was 25.1 µM [rising, partial curve].

On to `CCCCOc1ccc(C2C3CN(C(=O)OCC)CC=C3C(C#N)=C(N)C2(C#N)C#N)cc1OC` (configuration not stated), for which the AC50 is 5.01 µM [falling, full curve, poor fit].

Consider `CCC(C)n1c(=O)c(C(=O)Nc2ccccc2S(N)(=O)=O)c(O)c2ccccc21` (configuration not stated), for which the half-maximal activity concentration (AC50) was 7.94 µM [falling, partial curve]. For the molecule `Cc1nn2c(C)c(C(=O)N3CCN(c4ccccc4)CC3)cnc2c1-c1ccccc1`, the AC50 is 25.1 µM [falling, single point]. For the molecule `Cc1ccc(CCNC(=O)c2cc3c(=O)oc4ccccc4c3s2)cc1`, the half-maximal activity concentration (AC50) is 0.00794 µM [falling, full curve, poor fit].

With `COc1cc(OC)cc(C(=O)Nc2ccc3oc(-c4ccccc4C)nc3c2)c1`, the concentration at half-maximal activity (AC50) is 7.94 µM [falling, full curve]. In the case of `CC(C)CNc1nc(NC(C)(C)C)nc(Oc2ccc(=O)n(-c3ccccc3)n2)n1`, the AC50 was 31.6 µM [falling, single point]. As to `Cc1ccc(N(C)C(=O)Cn2cnc3onc(-c4ccc(F)cc4)c3c2=O)cc1C`, the half-maximal activity concentration (AC50) is 20 µM [falling, single point]. Consider `COc1ccc(CCNC(=O)CCCn2c(=O)c3ccccc3n(Cc3ccc(C)cc3)c2=O)cc1OC`, for which the AC50 was 3.98 µM [rising, single point].
